Measurements reported in the supplement of paper PMC12823440, “Inhibitors supercharge kinase turnover through native proteolytic circuits” (Nature, 2025).
Structures can show the parent of a compound that is named as a salt. Some of the results follow. Hit calls seldom repeat between salt and free forms of one compound.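 Kinases were expressed as nanoluciferase fusions in K562 cells and luminescence was read every 4 h between 2 and 18 h as percent of control, DMSO set to 100% and a positive control to 0%. A time point counts as decreased when the signal drops significantly (2 sigma). The hit call is the authors' own, does not follow from the count of time points alone, and its rule is not shown.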

The chains behind the UniProt entries cited, without tags or fusion partners. Where a name states a change or a piece, a line headed by the entry shows the natural chain unless it says otherwise.
UniProt P36888, whole entry: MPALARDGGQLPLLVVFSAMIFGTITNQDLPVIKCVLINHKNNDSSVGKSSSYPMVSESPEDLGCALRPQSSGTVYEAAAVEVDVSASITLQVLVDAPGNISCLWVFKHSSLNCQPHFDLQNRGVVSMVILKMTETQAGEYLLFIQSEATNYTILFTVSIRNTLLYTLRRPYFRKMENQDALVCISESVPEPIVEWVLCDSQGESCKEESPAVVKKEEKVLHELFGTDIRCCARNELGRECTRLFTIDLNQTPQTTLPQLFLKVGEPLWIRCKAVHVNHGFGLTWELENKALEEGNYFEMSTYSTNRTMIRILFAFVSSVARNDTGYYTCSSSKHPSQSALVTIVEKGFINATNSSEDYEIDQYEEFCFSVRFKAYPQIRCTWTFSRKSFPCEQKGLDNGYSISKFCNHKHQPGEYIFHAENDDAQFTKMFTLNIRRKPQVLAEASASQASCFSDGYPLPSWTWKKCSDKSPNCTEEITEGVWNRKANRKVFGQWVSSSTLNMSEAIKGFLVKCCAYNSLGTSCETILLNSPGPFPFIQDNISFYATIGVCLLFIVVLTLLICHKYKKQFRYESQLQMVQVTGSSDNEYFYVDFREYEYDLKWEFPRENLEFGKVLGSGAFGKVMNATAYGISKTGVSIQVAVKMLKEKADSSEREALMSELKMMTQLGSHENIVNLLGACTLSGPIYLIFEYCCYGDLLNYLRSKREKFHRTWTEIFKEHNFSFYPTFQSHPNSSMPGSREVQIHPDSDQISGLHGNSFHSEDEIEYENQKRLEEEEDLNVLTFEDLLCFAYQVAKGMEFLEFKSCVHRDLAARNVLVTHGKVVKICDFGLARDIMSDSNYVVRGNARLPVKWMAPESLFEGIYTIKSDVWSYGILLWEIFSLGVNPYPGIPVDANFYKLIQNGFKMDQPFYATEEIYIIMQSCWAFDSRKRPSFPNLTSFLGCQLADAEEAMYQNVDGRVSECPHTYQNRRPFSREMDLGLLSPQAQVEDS
UniProt P06241, whole entry, looked up: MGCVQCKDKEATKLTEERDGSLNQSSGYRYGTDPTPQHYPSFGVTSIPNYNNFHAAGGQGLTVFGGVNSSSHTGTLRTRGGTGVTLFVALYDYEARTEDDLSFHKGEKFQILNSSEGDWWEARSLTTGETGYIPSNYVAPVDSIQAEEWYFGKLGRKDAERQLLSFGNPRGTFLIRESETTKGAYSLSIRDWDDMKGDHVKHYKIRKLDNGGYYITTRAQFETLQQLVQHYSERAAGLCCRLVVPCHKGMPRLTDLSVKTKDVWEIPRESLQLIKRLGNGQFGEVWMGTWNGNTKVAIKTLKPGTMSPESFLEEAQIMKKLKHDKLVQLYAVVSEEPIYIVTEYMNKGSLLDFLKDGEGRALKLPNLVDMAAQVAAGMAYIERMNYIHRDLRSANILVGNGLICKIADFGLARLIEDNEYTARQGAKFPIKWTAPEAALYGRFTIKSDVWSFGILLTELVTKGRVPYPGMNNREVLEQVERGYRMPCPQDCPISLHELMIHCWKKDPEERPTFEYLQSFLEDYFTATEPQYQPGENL
UniProt P14616: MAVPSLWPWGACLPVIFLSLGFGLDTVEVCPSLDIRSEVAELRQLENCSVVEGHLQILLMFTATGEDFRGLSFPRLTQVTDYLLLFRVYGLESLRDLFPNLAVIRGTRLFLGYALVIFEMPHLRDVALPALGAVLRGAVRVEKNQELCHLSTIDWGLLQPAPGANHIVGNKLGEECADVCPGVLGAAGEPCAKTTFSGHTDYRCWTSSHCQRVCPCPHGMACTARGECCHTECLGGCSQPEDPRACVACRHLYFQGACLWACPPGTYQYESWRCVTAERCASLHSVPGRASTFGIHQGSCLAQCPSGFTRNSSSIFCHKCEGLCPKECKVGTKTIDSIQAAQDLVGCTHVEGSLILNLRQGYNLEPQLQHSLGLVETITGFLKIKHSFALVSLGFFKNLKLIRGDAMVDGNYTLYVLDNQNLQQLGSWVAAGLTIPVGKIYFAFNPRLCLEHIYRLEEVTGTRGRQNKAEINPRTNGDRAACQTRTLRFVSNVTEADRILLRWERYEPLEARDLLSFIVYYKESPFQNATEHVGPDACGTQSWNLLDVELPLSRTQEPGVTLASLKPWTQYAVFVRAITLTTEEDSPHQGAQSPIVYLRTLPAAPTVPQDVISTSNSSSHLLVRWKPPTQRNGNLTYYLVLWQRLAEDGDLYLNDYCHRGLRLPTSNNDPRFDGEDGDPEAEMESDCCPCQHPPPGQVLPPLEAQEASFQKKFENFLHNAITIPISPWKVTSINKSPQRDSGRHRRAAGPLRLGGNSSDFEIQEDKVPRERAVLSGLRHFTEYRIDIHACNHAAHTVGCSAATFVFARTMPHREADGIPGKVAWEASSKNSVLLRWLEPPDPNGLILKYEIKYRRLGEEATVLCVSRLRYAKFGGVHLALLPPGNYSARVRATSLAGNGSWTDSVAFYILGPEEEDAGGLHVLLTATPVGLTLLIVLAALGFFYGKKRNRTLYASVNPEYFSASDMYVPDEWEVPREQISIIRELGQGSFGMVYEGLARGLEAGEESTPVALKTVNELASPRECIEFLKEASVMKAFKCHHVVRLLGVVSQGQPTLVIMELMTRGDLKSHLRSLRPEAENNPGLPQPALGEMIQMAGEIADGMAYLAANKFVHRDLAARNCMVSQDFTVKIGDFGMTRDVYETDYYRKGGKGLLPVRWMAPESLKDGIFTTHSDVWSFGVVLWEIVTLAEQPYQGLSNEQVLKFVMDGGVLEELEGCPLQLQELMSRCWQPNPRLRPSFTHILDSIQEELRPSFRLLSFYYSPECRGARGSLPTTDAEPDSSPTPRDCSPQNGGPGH
UniProt Q9Y616: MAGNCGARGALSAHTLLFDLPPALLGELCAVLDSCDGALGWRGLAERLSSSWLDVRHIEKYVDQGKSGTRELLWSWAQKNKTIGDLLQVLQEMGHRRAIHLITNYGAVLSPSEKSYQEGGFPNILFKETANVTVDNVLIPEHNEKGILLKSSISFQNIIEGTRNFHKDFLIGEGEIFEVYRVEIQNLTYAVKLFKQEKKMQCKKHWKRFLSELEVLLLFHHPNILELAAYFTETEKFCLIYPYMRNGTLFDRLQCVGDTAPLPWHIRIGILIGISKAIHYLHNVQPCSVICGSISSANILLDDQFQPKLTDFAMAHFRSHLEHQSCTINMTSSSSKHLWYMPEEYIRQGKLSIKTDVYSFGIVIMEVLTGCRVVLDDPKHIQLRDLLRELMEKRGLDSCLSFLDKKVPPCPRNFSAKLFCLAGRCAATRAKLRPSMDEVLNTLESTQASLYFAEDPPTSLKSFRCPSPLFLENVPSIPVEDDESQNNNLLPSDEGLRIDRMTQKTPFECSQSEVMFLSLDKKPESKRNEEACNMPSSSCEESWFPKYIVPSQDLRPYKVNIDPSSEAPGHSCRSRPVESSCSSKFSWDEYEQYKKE
UniProt P23458: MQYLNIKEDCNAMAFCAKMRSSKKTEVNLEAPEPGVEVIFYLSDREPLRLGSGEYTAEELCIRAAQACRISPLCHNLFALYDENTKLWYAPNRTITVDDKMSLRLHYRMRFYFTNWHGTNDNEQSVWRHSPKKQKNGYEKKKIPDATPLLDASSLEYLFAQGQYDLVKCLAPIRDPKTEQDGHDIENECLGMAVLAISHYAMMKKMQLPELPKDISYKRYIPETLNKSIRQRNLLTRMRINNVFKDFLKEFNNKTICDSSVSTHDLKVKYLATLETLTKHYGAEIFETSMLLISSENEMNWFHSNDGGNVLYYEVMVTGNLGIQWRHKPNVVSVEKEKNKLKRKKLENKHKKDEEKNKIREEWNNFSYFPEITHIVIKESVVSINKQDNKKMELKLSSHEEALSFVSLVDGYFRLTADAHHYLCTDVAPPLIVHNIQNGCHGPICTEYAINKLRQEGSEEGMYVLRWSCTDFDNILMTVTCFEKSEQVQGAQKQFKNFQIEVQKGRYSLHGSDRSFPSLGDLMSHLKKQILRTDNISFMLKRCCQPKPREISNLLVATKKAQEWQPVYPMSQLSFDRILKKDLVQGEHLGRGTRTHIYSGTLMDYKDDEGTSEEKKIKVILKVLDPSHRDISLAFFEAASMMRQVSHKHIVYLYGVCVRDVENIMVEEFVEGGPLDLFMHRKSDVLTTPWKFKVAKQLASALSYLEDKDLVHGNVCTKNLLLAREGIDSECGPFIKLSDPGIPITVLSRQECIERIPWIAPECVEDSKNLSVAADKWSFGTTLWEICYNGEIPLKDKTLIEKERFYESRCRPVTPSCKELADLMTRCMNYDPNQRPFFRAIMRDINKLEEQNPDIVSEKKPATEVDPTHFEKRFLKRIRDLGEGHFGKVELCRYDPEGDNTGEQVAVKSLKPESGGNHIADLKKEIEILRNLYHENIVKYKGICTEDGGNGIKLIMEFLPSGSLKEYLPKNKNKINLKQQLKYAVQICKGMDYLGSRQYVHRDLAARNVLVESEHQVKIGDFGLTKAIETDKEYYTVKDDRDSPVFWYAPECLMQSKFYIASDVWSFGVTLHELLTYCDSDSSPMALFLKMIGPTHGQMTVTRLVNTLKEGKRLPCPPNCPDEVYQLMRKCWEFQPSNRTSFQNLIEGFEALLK
UniProt P06239: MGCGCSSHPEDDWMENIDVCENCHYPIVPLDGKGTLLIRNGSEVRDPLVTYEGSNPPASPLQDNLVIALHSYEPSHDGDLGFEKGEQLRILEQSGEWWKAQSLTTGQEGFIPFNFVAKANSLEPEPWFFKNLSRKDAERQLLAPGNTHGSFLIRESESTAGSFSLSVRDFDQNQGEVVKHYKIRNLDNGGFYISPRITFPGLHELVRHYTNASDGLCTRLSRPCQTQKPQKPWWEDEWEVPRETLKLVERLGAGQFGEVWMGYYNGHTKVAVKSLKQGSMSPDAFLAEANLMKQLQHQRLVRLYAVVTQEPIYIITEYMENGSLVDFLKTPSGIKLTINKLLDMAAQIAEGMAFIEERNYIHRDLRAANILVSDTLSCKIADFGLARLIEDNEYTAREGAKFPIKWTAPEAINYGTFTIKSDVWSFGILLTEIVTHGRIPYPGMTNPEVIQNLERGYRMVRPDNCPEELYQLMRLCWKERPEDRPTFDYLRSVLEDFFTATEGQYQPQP
UniProt P53667: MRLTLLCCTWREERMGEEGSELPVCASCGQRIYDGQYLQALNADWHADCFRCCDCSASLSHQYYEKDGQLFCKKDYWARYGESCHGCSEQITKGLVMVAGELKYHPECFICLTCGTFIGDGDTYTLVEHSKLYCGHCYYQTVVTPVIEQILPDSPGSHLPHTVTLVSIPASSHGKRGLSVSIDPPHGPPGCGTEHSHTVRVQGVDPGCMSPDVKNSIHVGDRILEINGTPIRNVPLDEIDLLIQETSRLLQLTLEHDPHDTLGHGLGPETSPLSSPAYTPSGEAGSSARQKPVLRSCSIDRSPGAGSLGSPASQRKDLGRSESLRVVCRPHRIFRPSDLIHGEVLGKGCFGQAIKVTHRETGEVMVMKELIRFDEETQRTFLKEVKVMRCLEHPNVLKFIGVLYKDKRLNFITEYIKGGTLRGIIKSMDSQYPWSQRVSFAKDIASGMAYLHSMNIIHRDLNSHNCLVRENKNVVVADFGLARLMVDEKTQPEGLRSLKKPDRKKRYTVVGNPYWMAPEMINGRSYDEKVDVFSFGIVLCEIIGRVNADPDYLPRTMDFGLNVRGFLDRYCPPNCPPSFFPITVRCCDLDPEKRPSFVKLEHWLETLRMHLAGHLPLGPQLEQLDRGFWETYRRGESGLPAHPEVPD
UniProt P53671: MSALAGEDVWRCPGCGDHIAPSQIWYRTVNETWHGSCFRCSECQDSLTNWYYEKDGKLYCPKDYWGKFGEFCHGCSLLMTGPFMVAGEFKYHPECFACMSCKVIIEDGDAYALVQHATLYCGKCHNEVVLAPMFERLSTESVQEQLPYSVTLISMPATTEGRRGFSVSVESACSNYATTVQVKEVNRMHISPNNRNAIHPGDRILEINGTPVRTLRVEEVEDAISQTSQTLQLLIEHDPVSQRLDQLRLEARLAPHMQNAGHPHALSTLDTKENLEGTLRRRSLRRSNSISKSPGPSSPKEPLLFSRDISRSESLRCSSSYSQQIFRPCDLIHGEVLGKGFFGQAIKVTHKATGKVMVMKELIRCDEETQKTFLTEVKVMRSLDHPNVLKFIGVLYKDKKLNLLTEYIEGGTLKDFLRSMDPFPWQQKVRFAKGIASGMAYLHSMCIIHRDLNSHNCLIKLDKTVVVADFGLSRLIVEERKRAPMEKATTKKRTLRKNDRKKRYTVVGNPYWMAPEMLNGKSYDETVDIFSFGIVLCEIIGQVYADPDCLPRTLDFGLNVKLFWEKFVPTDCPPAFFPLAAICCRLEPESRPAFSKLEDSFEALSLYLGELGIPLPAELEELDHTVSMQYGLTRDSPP

Experiments:
Assay in all cases: number of time points (of 5) at which kinase-Nluc abundance scored as decreased, DMSO-normalised (count); higher = more persistent destabilization
Details in all cases: K562; 2-18 h
FLT3 = FLT3 (UniProt P36888)
FYN = FYN (UniProt P06241)
GSK3A = GSK3A (UniProt P49840)
HER2 = HER2 (UniProt P04626)
INSRR = INSRR (UniProt P14616)
IRAK3 = IRAK3 (UniProt Q9Y616)
JAK1 = JAK1 (UniProt P23458)
LCK = LCK (UniProt P06239)
LIMK1 = LIMK1 (UniProt P53667)
LIMK2 = LIMK2 (UniProt P53671)

Measured: number of time points

O=Nc1c2[nH]c3ccccc3nc-2c2ccccc12 [IQ-1S (free acid)] (2.5 µM)
0: all assays above

C=CC(=O)Nc1cccc(CNc2nc(Nc3ccc(N4CCN(C)CC4)cc3OC)ncc2Cl)c1 (10 µM)
0: all assays above

O=[N+]([O-])c1ccc(Nc2nc(N3CCOCC3)nc(N3CCOCC3)n2)cc1 (10 µM)
0: all assays above

Cn1cc(-c2cnc3cnn(S(=O)(=O)c4cnc5ccc(-c6cnn(C)c6)cn45)c3c2)cn1 [Glumetinib] (10 µM)
0: all assays above

CC(C)N1CCN(c2ccc(Nc3ncc4cc5n(c4n3)C3(CCCCC3)CNC5=O)nc2)CC1 [Lerociclib (dihydrochloride)] (2 µM)
3: IRAK3
0: all other assays above

Cc1ccc(NC(=O)c2ccc(CN(CCN(C)C)C(=O)c3cccnc3)cc2)cc1Nc1nccc(-c2cccnc2)n1 [PDGFRα kinase inhibitor 1] (10 µM)
0: all assays above

Oc1ccc(/C=C/c2cc(O)cc(F)c2)cc1 [Resveratrol analog 1] (10 µM)
0: all assays above

CC(C)C[C@@H](C(=O)Nc1ccn(C[C@@H](O)CO)n1)N1CC(Oc2ccccc2Cl)=CC1=O [Dorzagliatin] (10 µM)
0: all assays above

C=CC(=O)N1C[C@H](COc2nc(Nc3cnn(C)c3)nc3[nH]cc(Cl)c23)[C@@H](OC)C1 (2.5 µM)
0: all assays above

Pulled one by one from above, 2 records:
Oc1ccc(/C=C/c2cc(O)cc(F)c2)cc1 [Resveratrol analog 1] (10 µM)
0: all assays above

Cn1cc(-c2cnc3cnn(S(=O)(=O)c4cnc5ccc(-c6cnn(C)c6)cn45)c3c2)cn1 [Glumetinib] (10 µM)
0: all assays above

Later entries:

Oc1ccc(/C=C/c2cc(O)cc(O)c2)cc1 [Resveratrol] (10 µM)
0: all assays above

NC(=O)c1cnc2[nH]ccc2c1N[C@@H]1[C@@H]2CC3C[C@H]1C[C@@](O)(C3)C2 [Peficitinib] (10 µM)
2: FLT3 | HER2
3: IRAK3 | JAK1
1: LIMK1
4: FYN
0: all other assays above

CC(C)=CCc1c(-c2ccc(O)cc2O)oc2c3c(cc(O)c2c1=O)OC(C)(C)C=C3 [Morusin] (2.5 µM)
0: all assays above

CCN(CC)c1cc2oc(=O)c(-c3nc4ccccc4o3)cc2cc1C (2.5 µM)
1: HER2
0: all other assays above

O=C1NC(=O)C(c2cnc3ccccn23)=C1c1cn2c3c(cc(F)cc13)CNCC2 [GSK-3 inhibitor 1] (2.5 µM)
0: all assays above

O=C(O)c1cccc(CN2C(=O)/C(=C(\c3ccccc3)c3ccc(Cl)cc3)c3ccccc32)c1 (2.5 µM)
0: all assays above

CC/C(=N\NC(=O)c1ccnc(NCCCN2CCOCC2)c1)c1ccc(Cl)cc1O (2.5 µM)
0: all assays above

CCc1cncnc1N1CCN(Cc2nc3ccc(C(F)(F)F)cc3[nH]2)CC1 (10 µM)
0: all assays above

COc1ccc(S(=O)(=O)NCc2ccc(C(=O)NCCc3ccc(Cl)cn3)cc2)cc1 (10 µM)
0: all assays above

C[C@H](NC(=O)[C@H]1NCC[C@@H]1O)c1ccc(-c2noc(CCC3CCCC3)n2)cc1 (10 µM)
0: all assays above
